Laboratory results taken from PMC7819943, “Rice protein-binding microarrays: a tool to detect cis-acting elements near promoter regions in rice”.
The other results are listed elsewhere or left out.

The chains behind the UniProt entries cited, without tags or fusion partners.
UniProt Q0JBA9, entry or part of it: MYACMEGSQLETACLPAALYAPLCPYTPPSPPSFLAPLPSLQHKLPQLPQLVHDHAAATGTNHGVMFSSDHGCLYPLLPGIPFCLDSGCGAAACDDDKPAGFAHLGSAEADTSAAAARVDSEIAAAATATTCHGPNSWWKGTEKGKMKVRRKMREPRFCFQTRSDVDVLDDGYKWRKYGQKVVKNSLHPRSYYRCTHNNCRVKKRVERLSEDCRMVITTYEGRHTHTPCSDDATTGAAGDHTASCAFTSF

molecular target: OsWRKY34 (Oryza sativa, UniProt Q0JBA9 1-250); assay: protein-binding microarray (RPBM); PBS, 2% BSA, 51.3 ng/ul salmon testes DNA, 50 uM zinc acetate, 200 nM TF, 25 C, 1 h; high values mean tight binding; settings: protein: recombinant; tags: N-terminal polyhistidine and DsRed monomer fusion (pET32a); label: CyDye5-dUTP incorporated in the synthesized complementary strand; 3' TTTTT single-stranded linker to array surface; dsDNA, one strand shown
Method in brief: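 The binding signal is fluorescence intensity per array feature (arbitrary units). Readings came from an Axon 4000B scanner after a washed, 2% BSA-blocked, double-stranded custom Agilent array had been incubated for 1 h at 25 °C with 200 nM protein and 50 µM zinc acetate. The protein was a Ni–NTA-purified transcription factor fused N-terminally to polyhistidine and DsRed, expressed in E. coli BL21-CodonPlus.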

Sequence | binding signal
TGTCTAATCCTTTTTGCTGCCATTCTGTTGTGAACTGGAACGGAGTCACCTAGTGCAG | 12000 fluorescence intensity (a.u.)
AATTGCTACTCAGGTCTACTTGCCTTCCCCACATCCACTCCGGAGTCACCTAGTGCAG | 9320 fluorescence intensity (a.u.)
TTTCCTCATTTATTCACTTGCCACATCATTTTTCATTCTACGGAGTCACCTAGTGCAG | 8060 fluorescence intensity (a.u.)
TTAGGTAGCAAACTGCATCATGTCGATCATTCCATTGCGCCGGAGTCACCTAGTGCAG | 8610 fluorescence intensity (a.u.)
ATCTCCCTCGTTTTCTGCGCGCACACTTTTCAAACTGCTACGGAGTCACCTAGTGCAG | 8720 fluorescence intensity (a.u.)
AAGTGAGTTTAGGGGTACACATTTCTGGTTTTGTGGTTAACGGAGTCACCTAGTGCAG | 8410 fluorescence intensity (a.u.)
ACTCTCTCCGTCCTTAAATATTTGACGCCGTTGACTTTTTCGGAGTCACCTAGTGCAG | 30600 fluorescence intensity (a.u.)
ACGTCGATCTCCGCCTCCTCAAAACCTTCTCGCCACGACGCGGAGTCACCTAGTGCAG | 9620 fluorescence intensity (a.u.)
CACACACACACTCTCTCTCCTCTCTTTCTCGCCCGTTTCCCGGAGTCACCTAGTGCAG | 8780 fluorescence intensity (a.u.)
AACTATTTTTACAAATGAACCGCTGCCAAAACTTATTTCACGGAGTCACCTAGTGCAG | 8300 fluorescence intensity (a.u.)
AGTACTCCGTTTTATTATATTATAAATCGTTTTATTTTTTCGGAGTCACCTAGTGCAG | 11900 fluorescence intensity (a.u.)
AGCTACTTCTTTCGTTTTATATTATAGGACGCTTTAACTTCGGAGTCACCTAGTGCAG | 11400 fluorescence intensity (a.u.)
GCGCTTTCGGTTCCTTTCCCCTGTTTGCGCTGTACTTTTCCGGAGTCACCTAGTGCAG | 12400 fluorescence intensity (a.u.)
TTTCAGTCTGGTCTTTTCTCTGTACCTATTTCTATTCATTCGGAGTCACCTAGTGCAG | 14900 fluorescence intensity (a.u.)
GTGCAAAATCTCACTCAACTTACTGCATTGCTTCTCCAGACGGAGTCACCTAGTGCAG | 9350 fluorescence intensity (a.u.)
CTTTCCAATTTGTTTAATTACCTGCTAACTTTGCTGCATCCGGAGTCACCTAGTGCAG | 10500 fluorescence intensity (a.u.)
CCACATCACGTGTGTGGGTTGCGTGGGTTGGGCTGGCAAACGGAGTCACCTAGTGCAG | 10800 fluorescence intensity (a.u.)
TAACTAATTTTGACCGGGTAGCATATAGTTTTGGGCTTTTCGGAGTCACCTAGTGCAG | 8220 fluorescence intensity (a.u.)
ACAAGATTGTTTTTTATCACTTTTTTTCTCCTCATTATTCCGGAGTCACCTAGTGCAG | 8810 fluorescence intensity (a.u.)
ATCCGTCCATCCTCCATCCGATGGCCGATAAGCCGTCCACCGGAGTCACCTAGTGCAG | 8060 fluorescence intensity (a.u.)
CGCCGTCTCCACCGCACCCTCGCCCTCACCGCCGGCTCAACGGAGTCACCTAGTGCAG | 8960 fluorescence intensity (a.u.)

Reformatted with tabs: entries from further up
Sequence	binding signal
ATCCGTCCATCCTCCATCCGATGGCCGATAAGCCGTCCACCGGAGTCACCTAGTGCAG	8060 fluorescence intensity (a.u.)
CGCCGTCTCCACCGCACCCTCGCCCTCACCGCCGGCTCAACGGAGTCACCTAGTGCAG	8960 fluorescence intensity (a.u.)

Carrying on:

Sequence | binding signal
GTTTGCGTGATTCTTTTCTGGTTGCCAATTTGGATATCTTCGGAGTCACCTAGTGCAG | 8460 fluorescence intensity (a.u.)
TTCTAGCCCATTCTCCGCTGTTGTGCTTTCTTCGTTTGATCGGAGTCACCTAGTGCAG | 11000 fluorescence intensity (a.u.)
CCATCTTCACCGTCTTGCCATATGGGACTCCCCATGACCACGGAGTCACCTAGTGCAG | 10500 fluorescence intensity (a.u.)
ACAATTCACAAACGAACCTCTGCTGTTAGCCGCCTCTTTCCGGAGTCACCTAGTGCAG | 8190 fluorescence intensity (a.u.)
ACTCTTTTGAACCTAGGGTCATTCTCGTATTTTTAAAGAACGGAGTCACCTAGTGCAG | 14000 fluorescence intensity (a.u.)
TTATTTTTCGTTCCTTCTTTTTTTCTCTCTCACTTTTCTCCGGAGTCACCTAGTGCAG | 11300 fluorescence intensity (a.u.)
GCCGCCGCCGTTGCCCGCGCAGCGCATTCTCCATTCCCTTCGGAGTCACCTAGTGCAG | 8360 fluorescence intensity (a.u.)
TTCTGGATCCGCCACTCTCGTGCGTATTTGGGCTAAAAAACGGAGTCACCTAGTGCAG | 8780 fluorescence intensity (a.u.)
ACCCGGTCCAAATCCACCTACTACTGTTTTTCTTTTGTCCCGGAGTCACCTAGTGCAG | 10800 fluorescence intensity (a.u.)
TCCACCTCACCCAACCTTGCCACGTCACTCCATCACAACCCGGAGTCACCTAGTGCAG | 11200 fluorescence intensity (a.u.)
GCTGTCTCTATCCGGGCTGATAAGAACCGAGGGAGTGTGACGGAGTCACCTAGTGCAG | 8200 fluorescence intensity (a.u.)
AATTTTTATTGTGATGTCTTATTGACATGGTACCATATACCGGAGTCACCTAGTGCAG | 8250 fluorescence intensity (a.u.)
GGCAGGCAGGCAGTCGTTCATCCACATCCACCGCCGCCGTCGGAGTCACCTAGTGCAG | 11500 fluorescence intensity (a.u.)
CTCCTCTTCCTGCTGCTCTCTCGCTCTCGTTGGATTCGGTCGGAGTCACCTAGTGCAG | 9620 fluorescence intensity (a.u.)
ACCACTATCACACAGTGGGATCGCTTACGTCATATACTTTCGGAGTCACCTAGTGCAG | 11100 fluorescence intensity (a.u.)
CATTTTGCTGTCATTATTTCTTCGGGATTGAAGTTCCATCCGGAGTCACCTAGTGCAG | 8970 fluorescence intensity (a.u.)
CATCCATTTCCCTTTCCCAGTCCCATCTCTCATATCCCATCGGAGTCACCTAGTGCAG | 8030 fluorescence intensity (a.u.)
CGCCACGGTCGCGCCTTCTTTGTCTCTCCCTTGTTTTTTTCGGAGTCACCTAGTGCAG | 9920 fluorescence intensity (a.u.)
ATTCCTTAGCATGTCACCCTCCTCCTCATCTCACCACACACGGAGTCACCTAGTGCAG | 8370 fluorescence intensity (a.u.)
CCGCCTCTGTCTATTTTGGCATTATCCACCGTTAATCATACGGAGTCACCTAGTGCAG | 11200 fluorescence intensity (a.u.)
CCTATTTAACACCGCCTCGTCGCTCTCTCCTTCCTCATCACGGAGTCACCTAGTGCAG | 8960 fluorescence intensity (a.u.)

Some of the entries so far, as labelled records:
TCCACCTCACCCAACCTTGCCACGTCACTCCATCACAACCCGGAGTCACCTAGTGCAG
  binding signal = 11200 fluorescence intensity (a.u.)
GCTGTCTCTATCCGGGCTGATAAGAACCGAGGGAGTGTGACGGAGTCACCTAGTGCAG
  binding signal = 8200 fluorescence intensity (a.u.)

Later entries

Sequence | binding signal
TTATTTGCTTGCTTGTCTGCCTACTGTCCAGTGACTGACCCGGAGTCACCTAGTGCAG | 9500 fluorescence intensity (a.u.)
GGTTGGGACGTGGAGAGTTGTTTGTAGATCGAGTTGAAAGCGGAGTCACCTAGTGCAG | 9120 fluorescence intensity (a.u.)
CAACTTTTCCATCACACCGTTTCAATTTTAACCAAACTTCCGGAGTCACCTAGTGCAG | 9410 fluorescence intensity (a.u.)
TGATTTTAAGGTTTTTTTTCATGATTTATTTTGCAACATTCGGAGTCACCTAGTGCAG | 8190 fluorescence intensity (a.u.)
CCTATCAAAATCATACGTTTTTCTTATTCCTACGTTTTCTCGGAGTCACCTAGTGCAG | 12500 fluorescence intensity (a.u.)
ATCAATCTTAATTCGCTTCTACATTGGGGTGCTTGTTAATCGGAGTCACCTAGTGCAG | 10300 fluorescence intensity (a.u.)
GATCACTCTGCCTTGTCTTAGGAGGGCCCCTTTTATTTATCGGAGTCACCTAGTGCAG | 11800 fluorescence intensity (a.u.)
GCGTCGTGTTTCCGGGGTCCCCTGCCACTGTCGAGCGCTGCGGAGTCACCTAGTGCAG | 8220 fluorescence intensity (a.u.)
GATGATTCTGTTTGGTTAGCTTCTCCGAGATTTGGAGGCCCGGAGTCACCTAGTGCAG | 8060 fluorescence intensity (a.u.)
CTCCGCTCCCGCTTCCCCGAGTTCCGCCGCTACAAGCTCGCGGAGTCACCTAGTGCAG | 8040 fluorescence intensity (a.u.)
ACTGCTTTACAGTAAAGCCATTGTACTACATGTCTTTTTTCGGAGTCACCTAGTGCAG | 8620 fluorescence intensity (a.u.)
TTGGCATGGTTATTTCATCCCCAAAATTTGCTTATAGCCACGGAGTCACCTAGTGCAG | 8470 fluorescence intensity (a.u.)
TTTGGATTGGGTTTGGTGGTTGGGTGGGAGGGAGGGAGCTCGGAGTCACCTAGTGCAG | 28600 fluorescence intensity (a.u.)
GGAGGACGCGTGGCGTTGGCATGCTCGTTTCGGCCACATCCGGAGTCACCTAGTGCAG | 9040 fluorescence intensity (a.u.)
AATTGCTGTTGATTTGCCACTACCACTCTCCCCAACAAGTCGGAGTCACCTAGTGCAG | 8640 fluorescence intensity (a.u.)
GCGTCTACACTTATACCATGTTTGTCAAGATCTCACTTCACGGAGTCACCTAGTGCAG | 10700 fluorescence intensity (a.u.)
CATACCAACTATGCAGCATTAATTCCACCTCTTAAGTTACCGGAGTCACCTAGTGCAG | 8090 fluorescence intensity (a.u.)
CTTATTAGTACCAACTATATCTCGCTGGATTTTGTAGATTCGGAGTCACCTAGTGCAG | 8720 fluorescence intensity (a.u.)
GCTCACCTCCAAAGCCGCGTTCCTGTCACTCGGCCACACTCGGAGTCACCTAGTGCAG | 9750 fluorescence intensity (a.u.)
TGTAATGTGTTATATTTTAGGATTAATCAGTTGTTCCTACCGGAGTCACCTAGTGCAG | 8470 fluorescence intensity (a.u.)
TGGTGGTGGAAATTTTGGAAATCGTGAGGGCTACACATACCGGAGTCACCTAGTGCAG | 9540 fluorescence intensity (a.u.)

Sequence | binding signal
TCCTATATTTTTTTCTTATACCTCCGTTTTCTCAATTCTACGGAGTCACCTAGTGCAG | 12300 fluorescence intensity (a.u.)
GCCGCCGCCACCACCGCCGCCTTATCGGCATCCGGGCTCACGGAGTCACCTAGTGCAG | 8230 fluorescence intensity (a.u.)
GTAAAGCTTCTTGCACTGTGGCTAGCTTCAAGCTCAAAACCGGAGTCACCTAGTGCAG | 8950 fluorescence intensity (a.u.)
ACCTATCCCATTCCCAACTGGAAACCAAAGCACGATTCAGCGGAGTCACCTAGTGCAG | 8170 fluorescence intensity (a.u.)
ATAGCGGTTGAGGGTGGGCTTCCTTGAGTCTGTGAGTGCCCGGAGTCACCTAGTGCAG | 13400 fluorescence intensity (a.u.)
TGCCATGCACGCCGCCTCGTCCTTGTTCTTGACCCGCGCCCGGAGTCACCTAGTGCAG | 10400 fluorescence intensity (a.u.)
AGGCAGGGTGGGTGGGTGGTGGGCTTGCTCGCTCCGCGTCCGGAGTCACCTAGTGCAG | 19700 fluorescence intensity (a.u.)
CCGCTGGCGCACTCGCTCCACGCCGCCCGCCGCCGCGCCCCGGAGTCACCTAGTGCAG | 8280 fluorescence intensity (a.u.)
GGCTCTCGCTCTCACCTCGTTAGGTGCCGCGTCGCTCTTCCGGAGTCACCTAGTGCAG | 8740 fluorescence intensity (a.u.)
CTCTACATGTGGGACTATTATTGCTCGGCTGGGTTGTTACCGGAGTCACCTAGTGCAG | 10000 fluorescence intensity (a.u.)
GAGGATTGATTTGTTTTTTTTTTTTGGGGTTTTCTCTTCTCGGAGTCACCTAGTGCAG | 16300 fluorescence intensity (a.u.)
GAGTCACTCTCACTCACTCCACCCCGGCCACTCGTAAACCCGGAGTCACCTAGTGCAG | 11100 fluorescence intensity (a.u.)
CTCTCTCGCCTCTCTATCTATCTGGGCCCAGAGGTTGGATCGGAGTCACCTAGTGCAG | 9630 fluorescence intensity (a.u.)
CTCTCCGGTTGGCCTCTGCTTCGTTCTCCTTCGCGCAGATCGGAGTCACCTAGTGCAG | 9530 fluorescence intensity (a.u.)
GTGTTTGATTTGCCTCTCTTAAGAACCACTGTGAAAACATCGGAGTCACCTAGTGCAG | 9680 fluorescence intensity (a.u.)
ATGTTATGTATGTTGTACTATCCTCTCTATCGTCCTAAAACGGAGTCACCTAGTGCAG | 8500 fluorescence intensity (a.u.)
CCGTACAAAAAGCATCTTACGGTGGGGTCAGGTGTATTTTCGGAGTCACCTAGTGCAG | 10300 fluorescence intensity (a.u.)
TTTTTGTCGGTATTTTGGTACGTTATTTGTATTTTAGCCACGGAGTCACCTAGTGCAG | 10300 fluorescence intensity (a.u.)
TGTAGCCACAATTGTGTCAACTCCTTTGCTGTCTTCTCTACGGAGTCACCTAGTGCAG | 8450 fluorescence intensity (a.u.)
TGTAAACGCCGCATGCTTCTGCTTTTTTGGTATGTTTCCTCGGAGTCACCTAGTGCAG | 9660 fluorescence intensity (a.u.)
TTCATTGTTTTGGTCAACTCGGGCTTGTTGCTTTTAATCACGGAGTCACCTAGTGCAG | 11000 fluorescence intensity (a.u.)
